Measurements published in patent EP3835316A1, “MOLECULES FOR USE TO TREAT OR PREVENT CARDIAC DISEASES” (Universiteit Gent, priority 2019, dated 2021).
“Also recorded” adds a separate entry of the source. Not every detail of the peptide structures is certain; ends, links or a residue may be inferred. Where no end group is shown, it is not given here.

Columns and labels:
Cx43 HC [1] = experiment: Whole cell voltage-clamp recording of Cx43 HC unitary currents activated by combined RyR activation (caffeine)/[Ca2+]i elevation in isolated ventricular cardiomyocytes; assay type: cell-based, mouse; settings: peptide 250 µM in the 250 nM [Ca2+]i pipette solution
[2] = test system: ventricular cardiomyocytes; experiment: Current clamp recordings of action potentials in cardiomyocytes; assay type: cell-based, mouse; settings: peptide 250 µM, compared to Cx43fl/fl control mice
Cx43 HC [3] = experiment: Whole cell voltage-clamp recording of electrically triggered Cx43 HC currents (voltage steps to +70 mV) in HeLa Cx43 cells; assay type: cell-based; settings: peptide 250 µM, [Ca2+]i set to 250 nM

KNRRNPRLVPY [RyRHCIp, KNRRNPRLVPY] was tested, and the “Cx43 HC opening (Qm)” value (Cx43 HC [1]; RyR activation/[Ca2+]i elevation, HC activity assessed every 30 sec, versus control without peptide) was “significantly inhibited; also recorded: significantly decreased”, the “time to significant inhibition of Cx43 HC opening” value (Cx43 HC [1]; repetitive assessment every 30 sec) was ≤ 2 min and the “action potential properties (APD90)” value [2] was “elongate the APD90”. For the same sequence, the “Cx43 HC currents activated by voltage steps to positive potentials (summary Qm)” value (Cx43 HC [3]) was “no inhibitory effect”.
